Results are given in words; binding and its absence hold for the method and conditions named. In cells and extracts the contact can be indirect. Some binding calls cover weakened binding; strength is not graded here.

Chains of the proteins cited; added tags and fusions are not shown. Lines headed by an entry give the natural chain unless they say otherwise; changes in a name come on top.
UniProt P42229: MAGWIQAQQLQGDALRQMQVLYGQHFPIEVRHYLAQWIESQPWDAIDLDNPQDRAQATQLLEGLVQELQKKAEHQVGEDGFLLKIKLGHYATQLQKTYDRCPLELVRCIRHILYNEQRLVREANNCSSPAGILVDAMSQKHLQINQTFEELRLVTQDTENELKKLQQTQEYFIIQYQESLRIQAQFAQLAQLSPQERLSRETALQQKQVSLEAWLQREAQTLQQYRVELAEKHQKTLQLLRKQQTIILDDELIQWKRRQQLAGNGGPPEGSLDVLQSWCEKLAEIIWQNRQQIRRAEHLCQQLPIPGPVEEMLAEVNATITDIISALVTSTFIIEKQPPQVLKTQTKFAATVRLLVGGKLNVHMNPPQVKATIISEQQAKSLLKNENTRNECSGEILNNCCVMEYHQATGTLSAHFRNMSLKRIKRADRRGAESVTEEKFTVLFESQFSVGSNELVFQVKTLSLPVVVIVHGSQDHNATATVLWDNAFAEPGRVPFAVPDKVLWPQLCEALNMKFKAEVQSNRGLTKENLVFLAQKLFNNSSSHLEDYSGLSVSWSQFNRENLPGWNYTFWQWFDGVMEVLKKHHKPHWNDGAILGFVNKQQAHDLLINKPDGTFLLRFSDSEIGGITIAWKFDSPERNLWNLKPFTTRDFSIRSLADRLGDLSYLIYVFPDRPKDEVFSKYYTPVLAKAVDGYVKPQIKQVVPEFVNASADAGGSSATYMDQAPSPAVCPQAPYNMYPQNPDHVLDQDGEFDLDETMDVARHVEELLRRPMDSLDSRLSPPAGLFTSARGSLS
UniProt P06748: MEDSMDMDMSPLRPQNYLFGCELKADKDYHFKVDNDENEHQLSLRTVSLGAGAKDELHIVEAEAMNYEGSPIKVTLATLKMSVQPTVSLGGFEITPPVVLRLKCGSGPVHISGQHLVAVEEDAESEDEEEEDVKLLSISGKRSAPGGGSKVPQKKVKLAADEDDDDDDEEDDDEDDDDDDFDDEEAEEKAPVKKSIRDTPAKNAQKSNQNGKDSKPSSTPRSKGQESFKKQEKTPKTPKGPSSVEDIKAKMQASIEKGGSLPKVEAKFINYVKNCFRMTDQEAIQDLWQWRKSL

The target in test [1] is RFP-tagged STAT5A Y694F mutant (RFP-STAT5AY694F) (UniProt P42229). As to the kind of experiment: co-IP; HEK 293T cells transfected with RFP-tagged wtSTAT5A or STAT5AY694F; RIPA lysate with 2 mg total protein precipitated overnight at 4 °C with mouse monoclonal anti-P-STAT5 (1:100) or rabbit monoclonal anti-T-STAT5 (1:50), protein G sepharose; endogenous NPM1 detected with mouse monoclonal anti-NPM1; IgG controls.

Test [2] addresses RFP-tagged wild-type STAT5A (RFP-wtSTAT5A) (UniProt P42229). The test is described as above.

Turning to “Nucleophosmin (NPM1), endogenous in HEK 293T cells (from UniProt P06748 1-294)”, the binding result in test [1] and in test [2] was “binds” in each case.

The values above are taken from paper PMC5260985.
